Measurements published in article doi:10.1101/679936.
These are yes or no findings as the source states them, for the method shown. Binding seen in cells or lysates may run through a third protein. Some binding calls cover weakened binding; strength is not graded here. For some assays here: Tags and fused reporters may be left off the sequences shown. One block for each binder: values may come before it.

Key:
FLAG-SREBP1a = target: T1, FLAG-SREBP1a (UniProt P36956); experiment: co-IP
T1 sequence: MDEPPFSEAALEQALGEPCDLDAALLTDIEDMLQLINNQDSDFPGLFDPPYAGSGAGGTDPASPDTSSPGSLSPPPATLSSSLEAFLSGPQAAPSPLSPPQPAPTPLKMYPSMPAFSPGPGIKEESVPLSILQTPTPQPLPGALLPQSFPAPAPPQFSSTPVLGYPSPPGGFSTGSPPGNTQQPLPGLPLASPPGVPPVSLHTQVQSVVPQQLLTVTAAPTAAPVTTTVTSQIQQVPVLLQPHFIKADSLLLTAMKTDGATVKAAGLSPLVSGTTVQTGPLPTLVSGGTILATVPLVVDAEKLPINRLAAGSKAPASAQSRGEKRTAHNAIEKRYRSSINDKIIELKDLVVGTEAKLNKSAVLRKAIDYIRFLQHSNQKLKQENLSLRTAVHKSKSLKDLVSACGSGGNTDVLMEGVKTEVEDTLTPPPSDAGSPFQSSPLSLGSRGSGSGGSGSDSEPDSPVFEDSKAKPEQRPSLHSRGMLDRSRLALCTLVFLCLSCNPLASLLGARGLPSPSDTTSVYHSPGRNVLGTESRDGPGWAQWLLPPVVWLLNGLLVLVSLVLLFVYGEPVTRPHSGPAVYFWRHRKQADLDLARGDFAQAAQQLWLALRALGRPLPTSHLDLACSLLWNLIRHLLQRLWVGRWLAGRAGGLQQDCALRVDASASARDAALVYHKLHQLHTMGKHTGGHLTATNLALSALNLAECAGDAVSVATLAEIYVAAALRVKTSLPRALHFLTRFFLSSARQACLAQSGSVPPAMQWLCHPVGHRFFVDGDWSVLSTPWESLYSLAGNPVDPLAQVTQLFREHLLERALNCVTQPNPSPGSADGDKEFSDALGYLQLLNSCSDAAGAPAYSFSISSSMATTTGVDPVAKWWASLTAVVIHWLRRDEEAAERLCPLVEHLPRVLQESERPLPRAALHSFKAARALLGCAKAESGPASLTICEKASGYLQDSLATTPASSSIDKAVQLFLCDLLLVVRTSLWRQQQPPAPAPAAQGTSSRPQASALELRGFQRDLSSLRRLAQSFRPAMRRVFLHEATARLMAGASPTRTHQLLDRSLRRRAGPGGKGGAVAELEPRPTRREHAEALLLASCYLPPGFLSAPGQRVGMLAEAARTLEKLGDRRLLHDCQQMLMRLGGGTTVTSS

FLAG-SREBP2 = target: T2, FLAG-SREBP2 (UniProt Q12772); experiment: co-IP
T2 sequence: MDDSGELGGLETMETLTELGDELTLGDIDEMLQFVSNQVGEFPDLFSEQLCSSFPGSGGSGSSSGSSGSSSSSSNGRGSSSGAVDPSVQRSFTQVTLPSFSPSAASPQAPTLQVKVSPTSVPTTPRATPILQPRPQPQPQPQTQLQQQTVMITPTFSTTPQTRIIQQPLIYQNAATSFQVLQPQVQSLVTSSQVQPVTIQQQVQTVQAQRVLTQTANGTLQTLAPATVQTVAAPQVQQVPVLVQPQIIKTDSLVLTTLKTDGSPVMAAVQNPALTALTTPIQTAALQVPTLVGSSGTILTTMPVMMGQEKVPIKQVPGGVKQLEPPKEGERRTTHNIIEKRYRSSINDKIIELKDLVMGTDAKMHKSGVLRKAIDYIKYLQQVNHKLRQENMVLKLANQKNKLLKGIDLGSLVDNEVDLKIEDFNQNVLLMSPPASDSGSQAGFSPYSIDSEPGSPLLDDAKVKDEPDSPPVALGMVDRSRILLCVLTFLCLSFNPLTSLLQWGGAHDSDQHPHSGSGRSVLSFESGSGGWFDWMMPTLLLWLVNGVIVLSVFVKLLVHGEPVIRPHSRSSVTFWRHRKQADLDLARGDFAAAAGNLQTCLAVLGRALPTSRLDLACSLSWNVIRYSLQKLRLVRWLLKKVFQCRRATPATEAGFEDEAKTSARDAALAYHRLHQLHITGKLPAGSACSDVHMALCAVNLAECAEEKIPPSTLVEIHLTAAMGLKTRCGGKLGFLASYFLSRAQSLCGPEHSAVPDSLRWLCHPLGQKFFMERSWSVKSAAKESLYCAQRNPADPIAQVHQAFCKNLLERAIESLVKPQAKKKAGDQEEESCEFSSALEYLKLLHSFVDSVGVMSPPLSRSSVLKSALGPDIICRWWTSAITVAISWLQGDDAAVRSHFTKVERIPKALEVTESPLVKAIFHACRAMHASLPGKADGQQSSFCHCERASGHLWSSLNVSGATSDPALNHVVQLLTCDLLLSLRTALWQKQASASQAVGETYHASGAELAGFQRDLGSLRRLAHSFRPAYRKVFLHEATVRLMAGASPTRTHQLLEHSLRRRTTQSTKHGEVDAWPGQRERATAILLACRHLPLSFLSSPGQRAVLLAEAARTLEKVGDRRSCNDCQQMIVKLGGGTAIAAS

FLAG-Sac1 WT (human) = target: T3, FLAG-Sac1 WT (human) (UniProt Q9NTJ5); experiment: co-IP
T3 sequence: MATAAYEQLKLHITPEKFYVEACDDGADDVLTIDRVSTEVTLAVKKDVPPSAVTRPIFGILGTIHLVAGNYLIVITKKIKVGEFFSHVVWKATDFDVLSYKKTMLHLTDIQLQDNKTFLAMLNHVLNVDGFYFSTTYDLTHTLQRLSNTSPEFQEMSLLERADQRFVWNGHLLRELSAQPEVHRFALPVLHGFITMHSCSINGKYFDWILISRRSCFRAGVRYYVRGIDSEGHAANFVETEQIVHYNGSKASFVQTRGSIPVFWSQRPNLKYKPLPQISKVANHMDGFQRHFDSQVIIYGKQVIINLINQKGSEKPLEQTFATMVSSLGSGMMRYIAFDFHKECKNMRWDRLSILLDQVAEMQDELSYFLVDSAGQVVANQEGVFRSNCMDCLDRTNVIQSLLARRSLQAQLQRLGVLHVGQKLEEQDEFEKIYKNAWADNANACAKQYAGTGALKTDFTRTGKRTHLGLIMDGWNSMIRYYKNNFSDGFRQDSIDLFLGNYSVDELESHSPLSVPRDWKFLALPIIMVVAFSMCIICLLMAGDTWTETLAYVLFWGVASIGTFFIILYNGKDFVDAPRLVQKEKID

Vc-Sac1 (human) = target: T4, Vc-Sac1 (human) (UniProt Q9NTJ5); experiment: split reporter
T4 sequence: T3 sequence

Vc-VAP-A (human) = target: T5, Vc-VAP-A (human) (UniProt Q9P0L0); experiment: split reporter
T5 sequence: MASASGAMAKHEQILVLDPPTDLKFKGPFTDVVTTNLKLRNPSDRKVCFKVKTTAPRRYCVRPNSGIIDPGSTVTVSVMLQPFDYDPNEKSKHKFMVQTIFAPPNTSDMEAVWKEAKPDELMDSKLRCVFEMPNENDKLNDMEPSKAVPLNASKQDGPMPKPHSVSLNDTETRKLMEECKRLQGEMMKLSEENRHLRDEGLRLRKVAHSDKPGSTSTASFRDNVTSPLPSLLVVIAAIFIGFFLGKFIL

binding (FLAG-SREBP1a): binds
binding (FLAG-SREBP2): binds
binding (FLAG-Sac1 WT (human)): binds
B1: Myc-OSBP (protein, UniProt P16258 1-809)
chain: MAATELRGVVGPGPAAIAAPGGGGAGPPVVGGGGGGRGDAGPGSGAASGTVAAAAAGGQGPGAGGVAAAAGPAPTPPAGGSGSSGTGGSGSAREGWLFKWTNYIKGYQRRWFVLSNGLLSYYRSKAEMRHTCRGTINLATANITVEDSCNFIISNGGAQTYHLKASSEVERQRWVTALELAKAKAVKMLAESDESGDEESVSQTDKTELQNTLRTLSSKVEDLSTCNDLIAKHGTALQRSLSELESLKLPAESNEKIKQVNERATLFRITSNAMINACRDFLVLAQTHSKKWQKSLQYERDQRIRLEETLEQLAKQHNHLERAFRGATVLPAHTSGSAGSGKDQCCSGKGDMSDEDDENEFFDAPEIITMPENLGHKRTGSNISGASSDISLDEQYKHQLEETKKEKRTRIPYKPNYSLNLWSIMKNCIGKELSKIPMPVNFNEPLSMLQRLTEDLEYHELLDRAAKCENSLEQLCYVAAFTVSSYSTTVFRTSKPFNPLLGETFELDRLEENGYRSLCEQVSHHPPAAAHHAESKNGWTLRQEIKITSKFRGKYLSIMPLGTIHCIFHATGHHYTWKKVTTTVHNIIVGKLWIDQSGEIDIVNHKTGDKCNLKFVPYSYFSRDVARKVTGEVTDPSGKVHFALLGTWDEKMDCFKVQPVSGENGGDARQRGHEAEESRVMLWKRNPLPKNAENMYYFSELALTLNAWEGGTAPTDSRLRPDQRLMENGRWDEANAEKQRLEEKQRLSRKKREAEAMKATEDGTPYDPYKALWFERKKDPVTKELTHIYRGEYWECKEKQDWNSCPDIF

binding (Vc-Sac1 (human)): binds
binding (Vc-VAP-A (human)): binds
B2: Vn-OSBP (protein, UniProt P16258 1-809)
chain: B1 chain
